Compound in the assay: Nc1nc2c(ncn2[C@@H]2O[C@H](COP(=O)(O)OP(=O)(O)OP(=O)(O)O)[C@@H](O)[C@H]2O)c(=O)[nH]1 [guanosine triphosphate]
In words: NP40-soluble protein abundance relative to vehicle (solubility fold change) (ratio); higher = more soluble protein in presence of GTP. In short, it runs like this:
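Jurkat crude lysate (Dounce-homogenised) was treated with eight concentrations from 0.1 to 10 mM for 10 min at room temperature, then 3 min at 37 °C. It was solubilised with 0.8% NP40 and benzonase (60 min, 4 °C) and ultracentrifuged, and the supernatant was TMT-labelled for LC-MS/MS. Intensities were vsn-normalised, and the value is the fold change against the NP40-processed vehicle per replicate, from three independent experiments.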

Amino acid sequences for entries named in this document (tags omitted). A change or cut given only in a name is not applied to a line headed by its entry.
UniProt Q96J01: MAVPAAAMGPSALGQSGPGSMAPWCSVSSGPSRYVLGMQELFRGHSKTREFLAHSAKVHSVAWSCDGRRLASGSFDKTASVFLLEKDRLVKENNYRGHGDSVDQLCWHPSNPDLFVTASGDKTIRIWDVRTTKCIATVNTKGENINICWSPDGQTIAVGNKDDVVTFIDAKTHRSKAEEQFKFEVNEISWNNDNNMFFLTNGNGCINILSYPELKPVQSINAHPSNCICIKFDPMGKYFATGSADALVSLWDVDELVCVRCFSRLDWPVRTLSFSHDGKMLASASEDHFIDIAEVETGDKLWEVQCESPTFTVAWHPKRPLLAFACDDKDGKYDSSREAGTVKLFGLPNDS
UniProt Q96DT7: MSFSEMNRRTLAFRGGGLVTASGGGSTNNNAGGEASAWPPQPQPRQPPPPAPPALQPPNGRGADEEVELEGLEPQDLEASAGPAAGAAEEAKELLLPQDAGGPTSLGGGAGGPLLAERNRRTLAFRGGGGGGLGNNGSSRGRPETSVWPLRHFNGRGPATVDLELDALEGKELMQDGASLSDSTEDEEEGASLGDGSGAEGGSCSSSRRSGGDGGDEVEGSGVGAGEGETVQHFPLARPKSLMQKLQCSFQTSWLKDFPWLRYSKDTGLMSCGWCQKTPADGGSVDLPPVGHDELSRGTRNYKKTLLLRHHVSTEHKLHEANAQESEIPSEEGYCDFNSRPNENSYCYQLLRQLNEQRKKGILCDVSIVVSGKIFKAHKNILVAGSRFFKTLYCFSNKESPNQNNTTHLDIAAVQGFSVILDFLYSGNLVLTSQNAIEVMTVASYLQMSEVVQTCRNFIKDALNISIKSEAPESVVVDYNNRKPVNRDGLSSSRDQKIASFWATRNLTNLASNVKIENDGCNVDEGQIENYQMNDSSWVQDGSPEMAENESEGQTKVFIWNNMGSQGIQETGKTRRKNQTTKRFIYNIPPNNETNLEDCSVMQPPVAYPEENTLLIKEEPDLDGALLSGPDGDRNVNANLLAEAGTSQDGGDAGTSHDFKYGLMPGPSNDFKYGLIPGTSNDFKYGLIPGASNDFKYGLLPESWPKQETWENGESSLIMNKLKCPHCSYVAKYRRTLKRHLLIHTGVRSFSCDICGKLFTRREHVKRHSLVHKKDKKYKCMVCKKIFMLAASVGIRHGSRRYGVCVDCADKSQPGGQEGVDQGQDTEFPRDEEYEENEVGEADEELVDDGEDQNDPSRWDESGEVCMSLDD
UniProt Q8WVZ9: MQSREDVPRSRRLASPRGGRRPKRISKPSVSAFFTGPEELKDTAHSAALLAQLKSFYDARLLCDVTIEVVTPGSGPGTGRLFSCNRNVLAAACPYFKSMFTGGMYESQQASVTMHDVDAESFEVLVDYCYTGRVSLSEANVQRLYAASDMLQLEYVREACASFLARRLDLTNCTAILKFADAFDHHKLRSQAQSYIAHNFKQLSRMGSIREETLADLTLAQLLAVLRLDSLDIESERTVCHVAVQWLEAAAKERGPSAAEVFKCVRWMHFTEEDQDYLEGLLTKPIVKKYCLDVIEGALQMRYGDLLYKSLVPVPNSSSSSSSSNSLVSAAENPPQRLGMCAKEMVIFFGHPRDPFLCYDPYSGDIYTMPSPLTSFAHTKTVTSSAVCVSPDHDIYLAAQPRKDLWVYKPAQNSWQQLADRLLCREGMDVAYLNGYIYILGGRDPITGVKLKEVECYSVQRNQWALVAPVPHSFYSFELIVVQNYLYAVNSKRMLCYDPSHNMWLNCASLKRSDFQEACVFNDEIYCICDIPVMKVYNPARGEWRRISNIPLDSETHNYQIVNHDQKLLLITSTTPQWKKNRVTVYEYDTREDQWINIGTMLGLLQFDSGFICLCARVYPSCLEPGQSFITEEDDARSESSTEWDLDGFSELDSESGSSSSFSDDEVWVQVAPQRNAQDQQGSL
UniProt Q8WZA0: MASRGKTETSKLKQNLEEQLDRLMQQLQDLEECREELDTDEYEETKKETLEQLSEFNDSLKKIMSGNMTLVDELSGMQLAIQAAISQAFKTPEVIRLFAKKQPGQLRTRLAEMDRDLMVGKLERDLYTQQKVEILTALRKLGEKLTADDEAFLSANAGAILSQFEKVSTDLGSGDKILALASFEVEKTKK
UniProt Q96BD8: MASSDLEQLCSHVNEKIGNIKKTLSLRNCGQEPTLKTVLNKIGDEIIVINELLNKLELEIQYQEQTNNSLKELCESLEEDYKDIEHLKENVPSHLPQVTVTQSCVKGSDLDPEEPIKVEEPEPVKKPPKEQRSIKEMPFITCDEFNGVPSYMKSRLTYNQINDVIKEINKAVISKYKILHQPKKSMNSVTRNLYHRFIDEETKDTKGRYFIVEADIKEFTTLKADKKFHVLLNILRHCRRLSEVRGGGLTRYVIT
UniProt Q92556, whole entry: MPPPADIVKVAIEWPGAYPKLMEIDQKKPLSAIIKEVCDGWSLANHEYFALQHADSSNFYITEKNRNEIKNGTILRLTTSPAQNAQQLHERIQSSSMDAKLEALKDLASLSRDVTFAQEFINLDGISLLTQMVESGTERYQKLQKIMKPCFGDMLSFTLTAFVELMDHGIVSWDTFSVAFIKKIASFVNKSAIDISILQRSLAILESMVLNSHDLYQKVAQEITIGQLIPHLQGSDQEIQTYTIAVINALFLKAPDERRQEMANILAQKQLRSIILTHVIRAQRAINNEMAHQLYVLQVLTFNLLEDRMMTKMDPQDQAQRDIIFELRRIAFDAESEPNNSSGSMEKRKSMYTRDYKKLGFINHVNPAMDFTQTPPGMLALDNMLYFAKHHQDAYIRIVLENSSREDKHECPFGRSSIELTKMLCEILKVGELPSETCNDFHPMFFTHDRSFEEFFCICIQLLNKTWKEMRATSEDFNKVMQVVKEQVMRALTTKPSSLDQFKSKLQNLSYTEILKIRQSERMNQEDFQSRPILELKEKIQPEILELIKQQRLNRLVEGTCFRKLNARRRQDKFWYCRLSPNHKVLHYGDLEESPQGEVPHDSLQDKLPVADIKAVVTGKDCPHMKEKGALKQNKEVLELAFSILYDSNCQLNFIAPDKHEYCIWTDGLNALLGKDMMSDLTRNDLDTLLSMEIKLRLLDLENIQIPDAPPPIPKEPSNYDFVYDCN
UniProt Q8WW12: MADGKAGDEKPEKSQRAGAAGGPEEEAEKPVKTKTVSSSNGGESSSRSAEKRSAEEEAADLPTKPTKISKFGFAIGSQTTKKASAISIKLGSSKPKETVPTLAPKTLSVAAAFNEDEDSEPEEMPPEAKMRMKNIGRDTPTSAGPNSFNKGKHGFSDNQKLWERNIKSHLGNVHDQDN
UniProt Q96EV8: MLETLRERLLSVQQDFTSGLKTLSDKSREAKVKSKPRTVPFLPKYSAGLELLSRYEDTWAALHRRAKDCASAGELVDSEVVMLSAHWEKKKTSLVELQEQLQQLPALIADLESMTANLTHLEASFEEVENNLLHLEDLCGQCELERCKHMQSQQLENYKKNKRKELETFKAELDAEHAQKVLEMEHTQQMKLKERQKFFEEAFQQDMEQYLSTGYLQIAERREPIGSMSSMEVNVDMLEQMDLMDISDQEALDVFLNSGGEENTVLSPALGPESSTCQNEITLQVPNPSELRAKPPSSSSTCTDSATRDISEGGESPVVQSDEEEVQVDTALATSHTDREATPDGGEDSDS
UniProt Q92820: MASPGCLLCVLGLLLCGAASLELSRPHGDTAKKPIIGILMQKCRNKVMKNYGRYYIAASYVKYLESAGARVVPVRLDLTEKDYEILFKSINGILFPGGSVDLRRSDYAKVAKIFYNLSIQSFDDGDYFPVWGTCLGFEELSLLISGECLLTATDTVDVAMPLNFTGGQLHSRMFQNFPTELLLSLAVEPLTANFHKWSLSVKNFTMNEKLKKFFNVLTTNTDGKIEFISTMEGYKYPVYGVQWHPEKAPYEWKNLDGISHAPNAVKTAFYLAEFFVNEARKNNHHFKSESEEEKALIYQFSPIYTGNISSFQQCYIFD
UniProt Q8WXI9: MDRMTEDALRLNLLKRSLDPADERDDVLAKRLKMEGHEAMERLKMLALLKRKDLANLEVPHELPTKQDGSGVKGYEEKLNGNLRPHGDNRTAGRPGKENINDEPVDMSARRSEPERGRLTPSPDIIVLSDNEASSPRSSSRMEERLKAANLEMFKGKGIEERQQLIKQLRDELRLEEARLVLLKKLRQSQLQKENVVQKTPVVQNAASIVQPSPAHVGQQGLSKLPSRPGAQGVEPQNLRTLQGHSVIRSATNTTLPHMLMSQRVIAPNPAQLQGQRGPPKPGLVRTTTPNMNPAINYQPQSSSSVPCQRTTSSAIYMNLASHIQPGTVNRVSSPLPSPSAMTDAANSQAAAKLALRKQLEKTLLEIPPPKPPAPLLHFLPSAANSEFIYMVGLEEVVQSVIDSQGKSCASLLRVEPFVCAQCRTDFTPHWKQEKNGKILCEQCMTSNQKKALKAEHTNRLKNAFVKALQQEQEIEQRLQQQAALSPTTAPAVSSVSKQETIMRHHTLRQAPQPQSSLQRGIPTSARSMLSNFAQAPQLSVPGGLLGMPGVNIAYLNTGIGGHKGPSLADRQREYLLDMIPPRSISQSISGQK
UniProt Q92621: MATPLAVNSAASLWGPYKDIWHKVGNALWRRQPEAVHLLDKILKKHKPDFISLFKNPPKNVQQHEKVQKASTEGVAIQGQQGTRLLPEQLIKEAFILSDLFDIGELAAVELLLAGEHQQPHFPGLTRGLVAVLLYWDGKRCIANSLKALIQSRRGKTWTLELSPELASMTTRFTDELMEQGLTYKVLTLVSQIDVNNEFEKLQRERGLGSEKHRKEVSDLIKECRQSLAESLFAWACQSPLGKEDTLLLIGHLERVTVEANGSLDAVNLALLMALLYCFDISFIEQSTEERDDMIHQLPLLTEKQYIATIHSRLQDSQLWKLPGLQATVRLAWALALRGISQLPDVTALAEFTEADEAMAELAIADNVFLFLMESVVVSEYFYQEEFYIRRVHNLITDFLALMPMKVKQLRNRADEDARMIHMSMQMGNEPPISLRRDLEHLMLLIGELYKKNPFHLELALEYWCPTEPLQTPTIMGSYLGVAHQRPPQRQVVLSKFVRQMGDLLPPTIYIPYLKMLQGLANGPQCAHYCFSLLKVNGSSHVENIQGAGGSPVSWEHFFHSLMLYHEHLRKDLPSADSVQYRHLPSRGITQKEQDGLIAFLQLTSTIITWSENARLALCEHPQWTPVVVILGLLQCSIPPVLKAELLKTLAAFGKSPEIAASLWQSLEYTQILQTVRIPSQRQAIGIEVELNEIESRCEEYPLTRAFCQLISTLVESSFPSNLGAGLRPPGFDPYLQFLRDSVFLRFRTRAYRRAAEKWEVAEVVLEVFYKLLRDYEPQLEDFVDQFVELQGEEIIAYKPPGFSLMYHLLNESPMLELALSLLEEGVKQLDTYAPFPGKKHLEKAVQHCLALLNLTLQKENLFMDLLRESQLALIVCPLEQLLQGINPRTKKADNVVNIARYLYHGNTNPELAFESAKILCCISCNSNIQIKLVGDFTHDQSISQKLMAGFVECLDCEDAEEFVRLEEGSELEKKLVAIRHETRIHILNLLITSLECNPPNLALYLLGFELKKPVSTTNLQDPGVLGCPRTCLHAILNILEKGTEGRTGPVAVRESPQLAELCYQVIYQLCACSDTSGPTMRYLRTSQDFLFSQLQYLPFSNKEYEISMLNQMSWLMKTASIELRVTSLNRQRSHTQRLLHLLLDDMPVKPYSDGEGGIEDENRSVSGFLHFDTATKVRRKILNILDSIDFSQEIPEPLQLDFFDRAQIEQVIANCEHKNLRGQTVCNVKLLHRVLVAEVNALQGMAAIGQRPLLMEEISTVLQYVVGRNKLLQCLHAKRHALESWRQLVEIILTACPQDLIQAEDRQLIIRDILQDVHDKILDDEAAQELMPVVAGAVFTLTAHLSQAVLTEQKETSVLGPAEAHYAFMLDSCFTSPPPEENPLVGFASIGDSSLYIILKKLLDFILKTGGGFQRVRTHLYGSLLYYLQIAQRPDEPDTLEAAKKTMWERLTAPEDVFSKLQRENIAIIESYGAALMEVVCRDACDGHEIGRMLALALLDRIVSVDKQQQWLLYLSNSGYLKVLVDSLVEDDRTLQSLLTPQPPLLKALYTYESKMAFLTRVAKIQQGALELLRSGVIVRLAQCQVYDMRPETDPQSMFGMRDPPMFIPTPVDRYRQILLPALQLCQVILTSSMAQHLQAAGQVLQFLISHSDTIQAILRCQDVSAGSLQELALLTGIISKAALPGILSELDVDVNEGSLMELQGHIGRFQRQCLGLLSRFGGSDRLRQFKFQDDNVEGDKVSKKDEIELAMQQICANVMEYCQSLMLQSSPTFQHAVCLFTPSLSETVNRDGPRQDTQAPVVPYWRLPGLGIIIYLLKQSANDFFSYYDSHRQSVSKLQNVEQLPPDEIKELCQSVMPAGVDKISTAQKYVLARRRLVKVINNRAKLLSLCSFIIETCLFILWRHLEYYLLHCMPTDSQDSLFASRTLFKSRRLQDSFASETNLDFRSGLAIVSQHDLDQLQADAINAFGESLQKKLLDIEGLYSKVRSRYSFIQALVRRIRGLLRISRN

± gives the standard deviation of the averaged measurements. The list shows a part of the results.

Turning to PDLIM5 (UniProt Q96HC4), the NP40-soluble protein abundance reads like this: (concentration: 0.1mM) 0.93 ± 0.015; (concentration: 0.5mM) 0.941 ± 0.041; (concentration: 1mM) 0.945 ± 0.034; (concentration: 2mM) 0.905 ± 0.044; (concentration: 4mM) 0.885 ± 0.057; (concentration: 6mM) 0.899 ± 0.062. In addition, the NP40-soluble protein abundance (concentration: 8mM) was 0.894 ± 0.029 and the NP40-soluble protein abundance (concentration: 10mM) was 0.897 ± 0.036.
For THOC3 (UniProt Q96J01), the NP40-soluble protein abundance is, setting by setting: (concentration: 0.1mM) 1.06 ± 0.058; (concentration: 0.5mM) 1.12 ± 0.091; (concentration: 1mM) 1.09 ± 0.1; (concentration: 2mM) 1.2 ± 0.16; (concentration: 4mM) 1.31 ± 0.14; (concentration: 6mM) 1.38 ± 0.14. For the same target, the NP40-soluble protein abundance was 1.35 ± 0.1 (concentration: 8mM) and 1.31 ± 0.13 (concentration: 10mM).
Take NUP133 (UniProt Q8WUM0): the NP40-soluble protein abundance reads like this: (concentration: 0.1mM) 1.04 ± 0.018; (concentration: 0.5mM) 1.06 ± 0.053; (concentration: 1mM) 1.05 ± 0.072; (concentration: 2mM) 1.06 ± 0.078; (concentration: 4mM) 1.09 ± 0.073; (concentration: 6mM) 1.1 ± 0.093. Besides, the NP40-soluble protein abundance is, setting by setting: (concentration: 8mM) 1.1 ± 0.073; (concentration: 10mM) 1.12 ± 0.086.
In the case of UniProt Q96DT7 and related entries, the NP40-soluble protein abundance is, setting by setting: (concentration: 0.1mM) 0.904 ± 0.14; (concentration: 0.5mM) 1 ± 0.11; (concentration: 1mM) 1.02 ± 0.11; (concentration: 2mM) 0.929 ± 0.18; (concentration: 4mM) 0.917 ± 0.11; (concentration: 6mM) 1.03 ± 0.12. Moreover, the NP40-soluble protein abundance (concentration: 8mM) is 1.1 ± 0.085 and the NP40-soluble protein abundance (concentration: 10mM) was found to be 1.03 ± 0.13.
Consider KBTBD7 (UniProt Q8WVZ9), for which the NP40-soluble protein abundance (concentration: 0.1mM) amounted to 1.15 ± 0.12; the NP40-soluble protein abundance (concentration: 0.5mM) turned out to be 1.12 ± 0.16; the NP40-soluble protein abundance (concentration: 1mM) was 1.09 ± 0.13; the NP40-soluble protein abundance (concentration: 2mM) was 1.11 ± 0.15; the NP40-soluble protein abundance (concentration: 4mM) worked out at 1.08 ± 0.14; the NP40-soluble protein abundance (concentration: 6mM) was 1.03 ± 0.14. The NP40-soluble protein abundance (concentration: 8mM) was 1.06 ± 0.16 and the NP40-soluble protein abundance (concentration: 10mM) turned out to be 1.01 ± 0.1.
On to UniProt Q8WZA0 and related entries, for which the NP40-soluble protein abundance (concentration: 0.1mM) was 0.911 ± 0.076; the NP40-soluble protein abundance (concentration: 0.5mM) came to 0.832 ± 0.098; the NP40-soluble protein abundance (concentration: 1mM) worked out at 1.08 ± 0.092; the NP40-soluble protein abundance (concentration: 2mM) worked out at 1 ± 0.068; the NP40-soluble protein abundance (concentration: 4mM) was found to be 1.02 ± 0.039; the NP40-soluble protein abundance (concentration: 6mM) turned out to be 0.971 ± 0.075. The NP40-soluble protein abundance (concentration: 8mM) came to 0.995 ± 0.14 and the NP40-soluble protein abundance (concentration: 10mM) was determined as 1.05 ± 0.15.
Regarding UniProt Q92609 and related entries, the NP40-soluble protein abundance amounted to 0.973 ± 0.026 (concentration: 0.1mM); 0.987 ± 0.041 (concentration: 0.5mM); 0.982 ± 0.011 (concentration: 1mM); 0.965 ± 0.05 (concentration: 2mM); 0.927 ± 0.032 (concentration: 4mM); 0.944 ± 0.045 (concentration: 6mM). Further, the NP40-soluble protein abundance was 0.97 ± 0.05 (concentration: 8mM) and 0.939 ± 0.067 (concentration: 10mM).
Take UniProt Q96BD8: the NP40-soluble protein abundance (concentration: 0.1mM) worked out at 0.949 ± 0.1; the NP40-soluble protein abundance (concentration: 0.5mM) is 0.858 ± 0.087; the NP40-soluble protein abundance (concentration: 1mM) was found to be 1.04 ± 0.15; the NP40-soluble protein abundance (concentration: 2mM) amounted to 0.976 ± 0.081; the NP40-soluble protein abundance (concentration: 4mM) stood at 0.9603 ± 0.0096; the NP40-soluble protein abundance (concentration: 6mM) was determined as 0.936 ± 0.024. Also, the NP40-soluble protein abundance by setting is: (concentration: 8mM) 0.925 ± 0.079; (concentration: 10mM) 0.989 ± 0.042.
Regarding ELMO1 (UniProt Q92556), the NP40-soluble protein abundance runs as follows: (concentration: 0.1mM) 1.03 ± 0.015; (concentration: 0.5mM) 1.04 ± 0.031; (concentration: 1mM) 0.981 ± 0.016; (concentration: 2mM) 0.994 ± 0.023; (concentration: 4mM) 0.981 ± 0.026; (concentration: 6mM) 0.979 ± 0.021. The NP40-soluble protein abundance (concentration: 8mM) was 0.971 ± 0.022 and the NP40-soluble protein abundance (concentration: 10mM) was 0.948 ± 0.025.
As for PCNP (UniProt Q8WW12), the NP40-soluble protein abundance by setting is: (concentration: 0.1mM) 0.932 ± 0.022; (concentration: 0.5mM) 0.996 ± 0.037; (concentration: 1mM) 1.07 ± 0.041; (concentration: 2mM) 1.05 ± 0.019; (concentration: 4mM) 1.04 ± 0.027; (concentration: 6mM) 1.08 ± 0.048. The NP40-soluble protein abundance is, setting by setting: (concentration: 8mM) 1.15 ± 0.049; (concentration: 10mM) 1.2 ± 0.036.
On to UniProt Q93008 and related entries, for which the NP40-soluble protein abundance runs as follows: (concentration: 0.1mM) 1.08 ± 0.054; (concentration: 0.5mM) 1.09 ± 0.087; (concentration: 1mM) 1 ± 0.062; (concentration: 2mM) 1.06 ± 0.12; (concentration: 4mM) 1.04 ± 0.091; (concentration: 6mM) 1.01 ± 0.09. For the same target, the NP40-soluble protein abundance reads like this: (concentration: 8mM) 0.992 ± 0.071; (concentration: 10mM) 0.975 ± 0.089.
For UniProt Q96EV8 and related entries, the NP40-soluble protein abundance is 0.969 ± 0.067 (concentration: 0.1mM); 0.934 ± 0.099 (concentration: 0.5mM); 0.986 ± 0.079 (concentration: 1mM); 0.901 ± 0.07 (concentration: 2mM); 0.932 ± 0.17 (concentration: 4mM); 0.892 ± 0.054 (concentration: 6mM). Also, the NP40-soluble protein abundance is, setting by setting: (concentration: 8mM) 0.947 ± 0.12; (concentration: 10mM) 0.882 ± 0.1.
As for GGH (UniProt Q92820), the NP40-soluble protein abundance (concentration: 0.1mM) amounted to 0.965 ± 0.053; the NP40-soluble protein abundance (concentration: 0.5mM) was determined as 0.933 ± 0.041; the NP40-soluble protein abundance (concentration: 1mM) turned out to be 0.932 ± 0.065; the NP40-soluble protein abundance (concentration: 2mM) is 0.895 ± 0.061; the NP40-soluble protein abundance (concentration: 4mM) was found to be 0.9 ± 0.097; the NP40-soluble protein abundance (concentration: 6mM) was 0.909 ± 0.082. The NP40-soluble protein abundance (concentration: 8mM) was determined as 0.873 ± 0.078 and the NP40-soluble protein abundance (concentration: 10mM) was determined as 0.871 ± 0.069.
GATAD2B (UniProt Q8WXI9): the NP40-soluble protein abundance was 0.999 ± 0.062 (concentration: 0.1mM); 1 ± 0.045 (concentration: 0.5mM); 1.17 ± 0.12 (concentration: 1mM); 1.19 ± 0.088 (concentration: 2mM); 1.21 ± 0.16 (concentration: 4mM); 1.24 ± 0.13 (concentration: 6mM). The NP40-soluble protein abundance reads like this: (concentration: 8mM) 1.29 ± 0.18; (concentration: 10mM) 1.35 ± 0.23.
Turning to NUP205 (UniProt Q92621), the NP40-soluble protein abundance runs as follows: (concentration: 0.1mM) 1.06 ± 0.064; (concentration: 0.5mM) 1.08 ± 0.1; (concentration: 1mM) 0.96 ± 0.058; (concentration: 2mM) 1.03 ± 0.14; (concentration: 4mM) 1.01 ± 0.085; (concentration: 6mM) 1.02 ± 0.098. The NP40-soluble protein abundance (concentration: 8mM) stood at 1.03 ± 0.04 and the NP40-soluble protein abundance (concentration: 10mM) was 1.08 ± 0.097.

Values taken from the supplement of paper PMC6411743.
